# Reference: PubChem BioAssay AID330 (DTP/NCI, 2004)
# The list does not hold the whole screen: it is rich in T/C values a quarter to a half above the control, in often repeated tests (any T/C) and in doses without a T/C. Further doses and runs are listed elsewhere. T/C gives the treated animals as a percentage of the vehicle group. Some entries give survivors of the animals treated and no T/C: the source files T/C as zero there, which appears to mark a toxic dose or a test without result, not a measured value. Some survivor counts are full or nearly so, which does not show that the dose was tolerated: survival well below the control is almost never listed, so the zero probably covers shortened survival too. Survivors were counted at the toxicity check, usually on the fifth day, unless a day is given; later deaths do not show. Schedules are NCI's codes, read here as Q, the interval in days (D) or hours (H), X, the number of doses. Some entries hold several experiments; the values are given in rising order. For survival time, the PubChem record calls one and a half times the control and up active, and a quarter to a half above the control has no call in these data; cut-offs in other NCI protocols can differ. Some T/C values are followed by the survivors on the day toxicity was checked, most often the fifth; where none is given, no animal had died by that day.
# Test system: P388 leukemia ip, CD2F1 mice, survival T/C
# Assay: NCI In Vivo Anticancer Drug Screen. Data for tumor model P388 Leukemia (intraperitoneal) in CD2F1 (CDF1) mice
# Conditions: T/C endpoint: median survival time, higher T/C = longer survival
# [1] = dose: 25.0 mg/kg/injection, schedule: Q01DX009 (ip), vehicle: saline
# [2] = dose: 200.0 mg/kg/injection, schedule: Q01DX005 (ip), vehicle: Klucel (hydroxypropylcellulose) (HPC)
# [3] = dose: 200.0 mg/kg/injection, schedule: Q01DX005 (ip), vehicle: saline with Tween-80
# [4] = dose: 240.0 mg/kg/injection, schedule: Q01DX005 (ip), vehicle: saline with Tween-80
# [5] = dose: 50.0 mg/kg/injection, schedule: Q01DX005 (ip), vehicle: Klucel (hydroxypropylcellulose) (HPC)
# [6] = dose: 100.0 mg/kg/injection, schedule: Q01DX005 (ip), vehicle: Klucel (hydroxypropylcellulose) (HPC)
# [7] = dose: 25.0 mg/kg/injection, schedule: Q01DX009 (ip), vehicle: water
compound,measurement,setting,value
CC1(C)N=C(N)N=C(N)N1c1cccc(CC(=O)Nc2ccccc2)c1,survivor count,"dose: 100.0 mg/kg/injection, schedule: Q04DX003 (ip), vehicle: saline sonified",4 of 6
same,survivor count,"dose: 200.0 mg/kg/injection, schedule: Q04DX003 (ip), vehicle: saline sonified",3 of 6
same,survivor count,"dose: 400.0 mg/kg/injection, schedule: Q04DX003 (ip), vehicle: saline sonified",3 of 6
O=C(O)CN1C(=O)C=CC1=O,survivor count,[1],6 of 6
same,survivor count,"dose: 50.0 mg/kg/injection, schedule: Q01DX009 (ip), vehicle: saline",0 of 6
same,survivor count,"dose: 100.0 mg/kg/injection, schedule: Q01DX009 (ip), vehicle: saline",0 of 6
same,survivor count,"dose: 200.0 mg/kg/injection, schedule: Q01DX009 (ip), vehicle: saline",0 of 6
CSC(=S)NS(=O)(=O)c1cccs1,survivor count,"dose: 200.0 mg/kg/injection, schedule: Q01DX009 (ip), vehicle: Klucel (hydroxypropylcellulose) (HPC)",0 of 6
Nc1c(Cl)ncnc1NCCN1CCOCC1,survivor count,[2],0 of 6
CCOC(=O)NC(NC(=O)OCC)C(=O)Nc1cccc2c(OC(=O)C(NC(=O)OCC)NC(=O)OCC)c(N=Nc3ccc(S(=O)(=O)Nc4nccs4)cc3)cc(N=Nc3ccc(S(=O)(=O)Nc4nccs4)cc3)c12 (tested in a mixture with another compound),T/C,"dose: 50.0 mg/kg/injection, schedule: Q01DX005 (ip), vehicle: saline with Tween-80",127 % of control
same,T/C,[3],129 % of control
same,survivor count,[3],1 of 5
same,survivor count,"dose: 400.0 mg/kg/injection, schedule: Q01DX005 (ip), vehicle: saline with Tween-80",2 of 5
COC(=O)Nc1cnc(C=O)c(C)c1-c1ccc(OC)c(OC)c1OCc1ccccc1,T/C,"dose: 200.0 mg/kg/injection, schedule: Q01DX009 (ip), vehicle: other",125 % of control
c1ccc(CN2CCCC3CCCC32)cc1 (configuration not stated),survivor count,"dose: 200.0 mg/kg/injection, schedule: Q01DX001 (ip), vehicle: saline with Tween-80",0 of 6
same,survivor count,"dose: 400.0 mg/kg/injection, schedule: Q01DX001 (ip), vehicle: saline with Tween-80",0 of 6
c1ccc(N2CCN(C(c3cccs3)N3CCN(c4ccccc4)CC3)CC2)cc1,survivor count,[4],0 of 6
CC(=O)OC1COC(n2cnc3c(Cl)nc(Cl)nc32)C(OC(C)=O)C1OC(C)=O (configuration not stated),survivor count,[2],2 of 6
O=[N+]([O-])c1ccc(C2=C[P+](c3ccccc3)(c3ccccc3)c3ccccc3O2)cc1,survivor count,"dose: 12.5 mg/kg/injection, schedule: Q01DX005 (ip), vehicle: Klucel (hydroxypropylcellulose) (HPC)",5 of 5
same,survivor count,"dose: 25.0 mg/kg/injection, schedule: Q01DX005 (ip), vehicle: Klucel (hydroxypropylcellulose) (HPC)",4 of 5
same,survivor count,[5],0 of 5
same,survivor count,[6],0 of 5
same,survivor count,[2],0 of 5
CCC[CH2][Sn]1([CH2]CCC)[O]C2C(CO)OC(n3ccc(N)nc3=O)C2[O]1 (configuration not stated),T/C,"dose: 0.19 mg/kg/injection, schedule: Q01DX009 (ip), vehicle: other",139 % of control
same,T/C,"dose: 0.39 mg/kg/injection, schedule: Q01DX009 (ip), vehicle: other",126 and 132 % of control
same,T/C,"dose: 0.78 mg/kg/injection, schedule: Q01DX009 (ip), vehicle: other",129 and 132 % of control
same,T/C,"dose: 1.3 mg/kg/injection, schedule: Q01DX005 (ip), vehicle: Klucel (hydroxypropylcellulose) (HPC)",126 % of control
same,T/C,"dose: 2.0 mg/kg/injection, schedule: Q01DX005 (ip), vehicle: Klucel (hydroxypropylcellulose) (HPC)",133 % of control
same,T/C,"dose: 2.2 mg/kg/injection, schedule: Q03HX015 (ip), vehicle: Klucel (hydroxypropylcellulose) (HPC)",133 % of control [9 of 10 alive]
same,T/C,"dose: 3.0 mg/kg/injection, schedule: Q01DX005 (ip), vehicle: Klucel (hydroxypropylcellulose) (HPC)",128 % of control
same,survivor count,"dose: 3.12 mg/kg/injection, schedule: Q01DX009 (ip), vehicle: other",0 of 6
same,survivor count,"dose: 3.3 mg/kg/injection, schedule: Q03HX015 (ip), vehicle: Klucel (hydroxypropylcellulose) (HPC)",8 of 10
same,T/C,"dose: 4.5 mg/kg/injection, schedule: Q01DX005 (ip), vehicle: Klucel (hydroxypropylcellulose) (HPC)",125 and 127 % of control
same,survivor count,"dose: 5.0 mg/kg/injection, schedule: Q03HX015 (ip), vehicle: Klucel (hydroxypropylcellulose) (HPC)",1 of 10
same,survivor count,"dose: 6.25 mg/kg/injection, schedule: Q01DX009 (ip), vehicle: other",6 of 6
same,T/C,"dose: 6.7 mg/kg/injection, schedule: Q01DX005 (ip), vehicle: Klucel (hydroxypropylcellulose) (HPC)",127 % of control [9 of 10 alive]
same,survivor count,"dose: 10.0 mg/kg/injection, schedule: Q01DX005 (ip), vehicle: Klucel (hydroxypropylcellulose) (HPC)",7 of 10
same,survivor count,"dose: 12.5 mg/kg/injection, schedule: Q01DX009 (ip), vehicle: other",0 of 6
same,survivor count,"dose: 15.0 mg/kg/injection, schedule: Q01DX005 (ip), vehicle: Klucel (hydroxypropylcellulose) (HPC)",3 of 10
same,survivor count,"dose: 25.0 mg/kg/injection, schedule: Q01DX009 (ip), vehicle: other",0 of 6
Cc1cc2[n-]c1/C=c1\[n-]/c(c(CCC(=O)O)c1C)=C\c1[n-]c(c(C)c1CCC(=O)O)/C=c1/cc(C)/c([n-]1)=C/2.[Co],survivor count,[5],5 of 5
same,survivor count,[6],5 of 5
O=C(CNCCCCNCCCNCC(=O)C(O)C(O)C(O)CO)C(O)C(O)C(O)CO (configuration not stated),survivor count,"dose: 120.0 mg/kg/injection, schedule: Q01DX005 (ip), vehicle: saline",3 of 6 and 5 of 6
same,survivor count,"dose: 240.0 mg/kg/injection, schedule: Q01DX005 (ip), vehicle: saline",0 of 6
CC(C)N1C(=O)C(C#N)=C(c2ccccc2)SC1c1ccccc1 (configuration not stated),survivor count,"dose: 25.0 mg/kg/injection, schedule: Q01DX009 (ip), vehicle: saline with Tween-80",6 of 6
Cc1ccc(N2C(c3ccccc3)=CC(=C3C=CC(=O)C=C3)C=C2c2ccccc2)cc1,survivor count,"dose: 60.0 mg/kg/injection, schedule: Q01DX005 (ip), vehicle: saline with Tween-80",2 of 6
same,survivor count,"dose: 120.0 mg/kg/injection, schedule: Q01DX005 (ip), vehicle: saline with Tween-80",0 of 6
same,survivor count,[4],0 of 6
O=[N+]([O-])c1cnc(Sc2ncccn2)c([N+](=O)[O-])c1,survivor count,[1],3 of 6
same,T/C,"dose: 25.0 mg/kg/injection, schedule: Q01DX009 (ip), vehicle: suspension in saline",141 % of control
same,survivor count,"dose: 100.0 mg/kg/injection, schedule: Q01DX009 (ip), vehicle: suspension in saline",3 of 6
same,survivor count,"dose: 200.0 mg/kg/injection, schedule: Q01DX009 (ip), vehicle: suspension in saline",0 of 6
CN1CCc2cc(O)c(O)cc2C1Cc1ccc(O)c(O)c1 (configuration not stated),survivor count,"dose: 200.0 mg/kg/injection, schedule: Q01DX009 (ip), vehicle: saline with Tween-80",2 of 6
[CH3][Sn]([CH3])([n]1cc(CC(=O)O)c2ccccc21)[n]1cc(CC(=O)O)c2ccccc21,survivor count,[2],0 of 6
COC(=O)/C=C1\C=CC(=O)OC1O (configuration not stated),survivor count,[5],1 of 6
same,survivor count,[6],0 of 6
same,survivor count,[2],0 of 6
COc1cccc2c1C(=O)c1c(O)c3c(c(O)c1C2=O)C[C@@](O)(C(=O)CN1CCOCC1)C[C@@H]3OC1CC(N)C(O)C(C)O1 (some centres not stated),T/C,"dose: 1.56 mg/kg/injection, schedule: Q01DX009 (ip), vehicle: water",139 % of control
same,survivor count,"dose: 3.13 mg/kg/injection, schedule: Q01DX009 (ip), vehicle: water",6 of 6
same,T/C,"dose: 5.6 mg/kg/injection, schedule: Q01DX001 (ip), vehicle: water",129 % of control
same,T/C,"dose: 7.5 mg/kg/injection, schedule: Q01DX001 (ip), vehicle: water",126 % of control
same,T/C,"dose: 25.0 mg/kg/injection, schedule: Q01DX001 (ip), vehicle: water",140 % of control
same,T/C,[7],134 % of control
same,survivor count,[7],6 of 6
same,survivor count,"dose: 50.0 mg/kg/injection, schedule: Q01DX009 (ip), vehicle: water",6 of 6
same,survivor count,"dose: 200.0 mg/kg/injection, schedule: Q01DX001 (ip), vehicle: water",1 of 6
same,survivor count,"dose: 400.0 mg/kg/injection, schedule: Q01DX001 (ip), vehicle: water",0 of 6
